The labels stand for the following.
B1: aconitase 2 (protein, UniProt Q99KI0 28-780)
chain: QRAKVAMSHFEPSEYIRYDLLEKNINIVRKRLNRPLTLSEKIVYGHLDDPANQEIERGKTYLRLRPDRVAMQDATAQMAMLQFISSGLPKVAVPSTIHCDHLIEAQVGGEKDLRRAKDINQEVYNFLATAGAKYGVGFWRPGSGIIHQIILENYAYPGVLLIGTDSHTPNGGGLGGICIGVGGADAVDVMAGIPWELKCPKVIGVKLTGSLSGWTSPKDVILKVAGILTVKGGTGAIVEYHGPGVDSISCTGMATICNMGAEIGATTSVFPYNHRMKKYLSKTGRTDIANLAEEFKDHLVPDPGCQYDQVIEINLNELKPHINGPFTPDLAHPVADVGTVAEKEGWPLDIRVGLIGSCTNSSYEDMGRSAAVAKQALAHGLKCKSQFTITPGSEQIRATIERDGYAQILRDVGGIVLANACGPCIGQWDRKDIKKGEKNTIVTSYNRNFTGRNDANPETHAFVTSPEIVTALAIAGTLKFNPETDFLTGKDGKKFKLEAPDADELPRSDFDPGQDTYQHPPKDSSGQRVDVSPTSQRLQLLEPFDKWDGKDLEDLQILIKVKGKCTTDHISAAGPWLKFRGHLDNISNNLLIGAINIENGKANSVRNAVTQEFGPVPDTARYYKKHGIRWVVIGDENYGEGSSREHAALEPRHLGGRAIITKSFARIHETNLKKQGLLPLTFADPSDYNKIHPVDKLTIQGLKDFAPGKPLKCVIKHPNGTQETILLNHTFNETQIEWFRAGSALNRMKELQQ
B2: protein phosphatase 1B (protein, UniProt P36993 1-390)
chain: MGAFLDKPKTEKHNAHGAGNGLRYGLSSMQGWRVEMEDAHTAVVGIPHGLDNWSFFAVYDGHAGSRVANYCSTHLLEHITTNEDFRAADKSGSALEPSVESVKTGIRTGFLKIDEYMRNFSDLRNGMDRSGSTAVGVMVSPTHMYFINCGDSRAVLCRNGQVCFSTQDHKPCNPVEKERIQNAGGSVMIQRVNGSLAVSRALGDYDYKCVDGKGPTEQLVSPEPEVYEIVRAEEDEFVVLACDGIWDVMSNEELCEFVKSRLEVSDDLENVCNWVVDTCLHKGSRDNMSVVLVCFSNAPKVSEEAVKRDSELDKHLESRVEEIMQKSGEEGMPDLAHVMRILSAENIPNLPPGGGLAGKRHVIEAVYSRLNPHKDNDGGAGDLEDSLVAL
B3: 2′,3′-cyclic-nucleotide 3′-phosphodiesterase I (protein, UniProt P16330 1-420)
chain: MNTSFTRKSHTFLPKLFFRKMSSSGAKEKPELQFPFLQDEDTVATLHECKTLFILRGLPGSGKSTLARLILEKYHDGTKMVSADAYKIIPGSRADFSEAYKRLDEDLAGYCRRDIRVLVLDDTNHERERLDQLFEMADQYQYQVVLVEPKTAWRLDCAQLKEKNQWQLSADDLKKLKPGLEKDFLPLYFGWFLTKKSSETLRKAGQVFLEELGNHKAFKKELRHFISGDEPKEKLELVSYFGKRPPGVLHCTTKFCDYGKAAGAEEYAQQEVVKRSYGKAFKLSISALFVTPKTAGAQVVLTDQELQLWPSDLDKPSASEGLPPGSRAHVTLGCAADVQPVQTGLDLLDILQQVKGGSQGEAVGELPRGKLYSLGKGRWMLSLTKKMEVKAIFTGYYGKGKPVPIHGSRKGGAMQICTII
B4: phosphofructokinase 1 (protein, UniProt P47857 1-780)
chain: MTHEEHHAAKTLGIGKAIAVLTSGGDAQGMNAAVRAVVRVGIFTGARVFFVHEGYQGLVDGGEHIREATWESVSMMLQLGGTVIGSARCKDFREREGRLRAAHNLVKRGITNLCVIGGDGSLTGADTFRSEWSDLLNDLQKDGKITAEEATKSSYLNIVGLVGSIDNDFCGTDMTIGTDSALHRIVEIVDAITTTAQSHQRTFVLEVMGRHCGYLALVTSLSCGADWVFIPECPPDDDWEEHLCRRLSETRTRGSRLNIIIVAEGAIDKNGKPITSEDIKNLVVKRLGYDTRVTVLGHVQRGGTPSAFDRILGSRMGVEAVMALLEGTPDTPACVVSLSGNQAVRLPLMECVQVTKDVTKAMDEKRFDEAIKLRGRSFMNNWEVYKLLAHVRPPVSKGGLHTVAVMNVGAPAAGMNAAVRSTVRIGLIQGNRVLVVHDGFEGLAKGQIEEAGWSYVGGWTGQGGSKLGTKRTLPKKNLEQISANITKFNIQGLVIIGGFEAYTGGLELMEGRKQFDELCIPFVVIPATVSNNVPGSDFSIGADTALNTICTTCDRIKQSAAGTKRRVFIIETMGGYCGYLATMAGLAAGADAAYIFEEPFTIRDLQVNVEHLVQKMKTTVKRGLVLRNEKCNENYTTDFIFNLYSEEGKGIFDSRKNVLGHMQQGGSPTPFDRNFATKMGAKAMNWMSGKIKESYRNGRIFANTPDSGCVLGMRKRALVFQPVTELKDQTDFEHRIPKEQWWLKLRPILKILAKYEIDLDTSDHAHLEHISRKRSGEAAV
B5: glutamate oxaloacetate transaminase 2 (protein, UniProt P05202 30-430)
chain: SSWWTHVEMGPPDPILGVTEAFKRDTNSKKMNLGVGAYRDDNGKPYVLPSVRKAEAQIAAKNLDKEYLPIGGLAEFCKASAELALGENNEVLKSGRFVTVQTISGTGALRVGASFLQRFFKFSRDVFLPKPSWGNHTPIFRDAGMQLQGYRYYDPKTCGFDFSGALEDISKIPEQSVLLLHACAHNPTGVDPRPEQWKEIASVVKKKNLFAFFDMAYQGFASGDGDKDAWAVRHFIEQGINVCLCQSYAKNMGLYGERVGAFTVVCKDAEEAKRVESQLKILIRPLYSNPPLNGARIAATILTSPDLRKQWLQEVKGMADRIISMRTQLVSNLKKEGSSHNWQHITDQIGMFCFTGLKPEQVERLTKEFSVYMTKDGRISVAGVTSGNVGYLAHAIHQVTK
B6: brain glycogen phosphorylase (protein, UniProt Q8CI94 1-843)
chain: MAKPLTDSERQKQISVRGIAGLGDVAEVRKSFNRHLHFTLVKDRNVATPRDYFFALAHTVRDHLVGRWIRTQQHYYERDPKRIYYLSLEFYMGRTLQNTMVNLGLQTACDEATYQLGLDLEELEEIEEDAGLGNGGLGRLAACFLDSMATLGLAAYGYGIRYEFGIFNQKIVNGWQVEEADDWLRYGNPWEKARPEYMLPVHFYGRVEHTPDGVLWLDTQVVLAMPYDTPVPGYKNNTVNTMRLWSAKAPNDFKLKDFNVGDYIEAVLDRNLAENISRVLYPNDNFFEGKELRLKQEYFVVAATLQDIIRRFKSSRFGCRDPVRTCFETFPDKVAIQLNDTHPALSIPELMRILVDVEKVDWDKAWEITKKTCAYTNHTVLPEALERWPVSMFEKLLPRHLEIIYAINQRHLDHVAALFPGDVDRLRRMSVIEEGDCKRINMAHLCVIGSHAVNGVARIHSEIVKQSVFKDFYELEPEKFQNKTNGITPRRWLLLCNPGLAEIIVERIGEGFLTDLSQLKKLLSLVDDEAFIRDVAKVKQENKLKFSAQLEKEYKVKINPASMFDVHVKRIHEYKRQLLNCLHIITLYNRIKKDPAKAFVPRTVMIGGKAAPGYHMAKMIIKLVTSIGDVVNHDPVVGDRLRVIFLENYRVSLAEKVIPAADLSQQISTAGTEASGTGNMKFMLNGALTIGTMDGANVEMAEEAGEENLFIFGMRVEDVEALDQKGYNAREFYERLPELRQAVDQISSGFFSPKDPDCFKDVVNMLMYHDRFKVFADYEAYIQCQAQVDRLYRNSKEWTKKVIRNIACSGKFSSDRTITEYAREIWGVEPSDLQIPPPNLPKD
B7: latexin (protein, UniProt P70202 1-222)
chain: MEIPPTHYAASRAASVAENCINYQQGTPHKLFLVQTVQQASKEDIPGRGHKYHLKFSVEEIIQKQVTVNCTAEVLYPQMGQGSAPEVNFTFEGEIGKNPDEEDNTFYQSLMSLKRPLEAQDIPDNFGNVSPQMKPVQHLAWVACGYVMWQNSTEDTWYKMLKIQTVKQVQRNDDFIELDYTILLHDIASQEIIPWQMQVLWHPQYGTKVKHNSRLPKEGQAE
B8: solute carrier family 25, member 4 (protein, UniProt P48962 1-298)
chain: MGDQALSFLKDFLAGGIAAAVSKTAVAPIERVKLLLQVQHASKQISAEKQYKGIIDCVVRIPKEQGFLSFWRGNLANVIRYFPTQALNFAFKDKYKQIFLGGVDRHKQFWRYFAGNLASGGAAGATSLCFVYPLDFARTRLAADVGKGSSQREFNGLGDCLTKIFKSDGLKGLYQGFSVSVQGIIIYRAAYFGVYDTAKGMLPDPKNVHIIVSWMIAQSVTAVAGLVSYPFDTVRRRMMMQSGRKGADIMYTGTLDCWRKIAKDEGANAFFKGAWSNVLRGMGGAFVLVLYDEIKKYV
B9: solute carrier family 25, member 5 (protein, UniProt P51881 1-298)
chain: MTDAAVSFAKDFLAGGVAAAISKTAVAPIERVKLLLQVQHASKQITADKQYKGIIDCVVRIPKEQGVLSFWRGNLANVIRYFPTQALNFAFKDKYKQIFLGGVDKRTQFWRYFAGNLASGGAAGATSLCFVYPLDFARTRLAADVGKAGAEREFKGLGDCLVKIYKSDGIKGLYQGFNVSVQGIIIYRAAYFGIYDTAKGMLPDPKNTHIFISWMIAQSVTAVAGLTSYPFDTVRRRMMMQSGRKGTDIMYTGTLDCWRKIARDEGSKAFFKGAWSNVLRGMGGAFVLVLYDEIKKYT

By UniProt entry, the sequences of proteins in these tests, tags left out. Where a name states a change or a piece, a line headed by the entry shows the natural chain unless it says otherwise.
UniProt P00441: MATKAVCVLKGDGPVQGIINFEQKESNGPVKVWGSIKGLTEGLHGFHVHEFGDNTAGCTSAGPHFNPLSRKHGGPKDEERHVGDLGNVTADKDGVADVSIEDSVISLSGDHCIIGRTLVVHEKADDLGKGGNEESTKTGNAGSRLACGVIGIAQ

Results are given in words; binding and its absence hold for the method and conditions named. In cells and extracts the contact can be indirect. Here binding means that the protein was enriched with, or labelled near, the bait; the list need not be complete.

The first test concerns the target SOD1^Leu126delTT with a FLAG sequence at C terminal (DF mutant SOD1) (human) (UniProt P00441). Kind of test: affinity purification with mass spectrometry; cerebellum of DF mice aged 145 days; same lysis buffer; anti-FLAG M2 affinity gel, elution with 3xFLAG peptide, LC-MS/MS.
As to B1, the binding entry is given as “binds”.
Still for that read-out and setting: the result for B2 reads “binds”.

Another test shares this target. Put plainly: affinity purification with mass spectrometry; spinal cord of presymptomatic DF mice aged 35 days; same lysis buffer; anti-FLAG M2 affinity gel, elution with 3xFLAG peptide, LC-MS/MS.
Regarding B3, the binding result is listed as “binds”.

A further test shares this target. Put plainly: affinity purification with mass spectrometry; spinal cord of mice aged 145 days (DF symptomatic; WF); extract in 0.15 M NaCl, 10 mM Tris-HCl, 1% Triton X-100, pH 7.4; anti-FLAG M2 affinity gel, elution with 3xFLAG peptide, trypsin digest, LC-MS/MS.
As to B4, the binding entry is on record as “binds”.
Same read-out and setting: with B3 the entry was “binds”.
On to B5, for which the binding entry is reported as “binds”.
Still for that read-out and setting: with B6 the entry was “binds”; with B7, “binds”; with B1, “binds”.
Consider B8, for which the binding entry is “binds”.
Still for that read-out and setting: the result for B9 reads “binds”.

For the origin of these results see PMC2567031.
